From PMC9596850, “Tonsillar Microbiome‐Derived Lantibiotics Induce Structural Changes of IL‐6 and IL‐21 Receptors and Modulate Host Immunity” (Advanced Science, 2022)
These are yes or no findings as the source states them, for the method shown. Sequences can lack the tags named with a protein.

T1: recombinant mouse IL-6 receptor subunit alpha protein with the Fc region of mouse IgG2a (mouse) (UniProt P22272)
T1 sequence: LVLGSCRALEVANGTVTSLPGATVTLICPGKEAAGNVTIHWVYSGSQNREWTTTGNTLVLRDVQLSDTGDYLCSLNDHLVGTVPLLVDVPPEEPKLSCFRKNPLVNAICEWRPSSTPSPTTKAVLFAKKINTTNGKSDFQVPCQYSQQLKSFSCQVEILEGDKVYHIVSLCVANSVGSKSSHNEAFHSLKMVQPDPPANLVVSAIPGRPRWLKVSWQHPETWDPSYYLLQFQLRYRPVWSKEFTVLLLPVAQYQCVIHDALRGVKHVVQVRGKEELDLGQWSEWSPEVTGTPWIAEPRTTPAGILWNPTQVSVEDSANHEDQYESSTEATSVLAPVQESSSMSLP


Target: T1, recombinant mouse IL-6 receptor subunit alpha protein with the Fc region of mouse IgG2a (mouse)
Assay: condition: 5 µg peptide with 0.5 µg receptor in 1 mL; pull-down; Fc-receptor (0.5 µg) with peptide (5 µg) in 1 mL 20 mM Tris-HCl pH 7.6, 200 mM NaCl, 1 mM EDTA, 4 °C, 2 h; captured on Protein A agarose; eluate read by mass spectrometry (LTQ-Orbitrap Velos, Q-Exactive); both purified

| binding | Binder |
| --- | --- |
| no binding | CCVFVSNPCDDTITAFWGTGRK [negative control peptide A] |
| no binding | SCCTFLFQWSNMRCEHSITQIVGGG [negative control peptide B] |
